Test results from publication PMC12391806.
No constants are given. Whether binding was seen depends on the method and setting. In cells and extracts the contact can be indirect. A yes stands for co-enrichment or nearness to the bait. Other partners may have been found.

The chains behind the UniProt entries cited, without tags or fusion partners.
UniProt P49674: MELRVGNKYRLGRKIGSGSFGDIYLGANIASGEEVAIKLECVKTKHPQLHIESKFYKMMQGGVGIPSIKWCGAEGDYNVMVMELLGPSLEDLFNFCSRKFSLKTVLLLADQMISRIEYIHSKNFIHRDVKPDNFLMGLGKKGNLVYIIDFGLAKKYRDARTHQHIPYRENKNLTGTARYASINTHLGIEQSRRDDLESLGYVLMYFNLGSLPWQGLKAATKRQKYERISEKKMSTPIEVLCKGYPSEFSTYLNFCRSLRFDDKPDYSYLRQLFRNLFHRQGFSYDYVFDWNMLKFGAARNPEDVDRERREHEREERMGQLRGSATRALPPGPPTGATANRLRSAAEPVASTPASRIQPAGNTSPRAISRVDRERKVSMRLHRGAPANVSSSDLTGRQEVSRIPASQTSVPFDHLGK
UniProt O15169: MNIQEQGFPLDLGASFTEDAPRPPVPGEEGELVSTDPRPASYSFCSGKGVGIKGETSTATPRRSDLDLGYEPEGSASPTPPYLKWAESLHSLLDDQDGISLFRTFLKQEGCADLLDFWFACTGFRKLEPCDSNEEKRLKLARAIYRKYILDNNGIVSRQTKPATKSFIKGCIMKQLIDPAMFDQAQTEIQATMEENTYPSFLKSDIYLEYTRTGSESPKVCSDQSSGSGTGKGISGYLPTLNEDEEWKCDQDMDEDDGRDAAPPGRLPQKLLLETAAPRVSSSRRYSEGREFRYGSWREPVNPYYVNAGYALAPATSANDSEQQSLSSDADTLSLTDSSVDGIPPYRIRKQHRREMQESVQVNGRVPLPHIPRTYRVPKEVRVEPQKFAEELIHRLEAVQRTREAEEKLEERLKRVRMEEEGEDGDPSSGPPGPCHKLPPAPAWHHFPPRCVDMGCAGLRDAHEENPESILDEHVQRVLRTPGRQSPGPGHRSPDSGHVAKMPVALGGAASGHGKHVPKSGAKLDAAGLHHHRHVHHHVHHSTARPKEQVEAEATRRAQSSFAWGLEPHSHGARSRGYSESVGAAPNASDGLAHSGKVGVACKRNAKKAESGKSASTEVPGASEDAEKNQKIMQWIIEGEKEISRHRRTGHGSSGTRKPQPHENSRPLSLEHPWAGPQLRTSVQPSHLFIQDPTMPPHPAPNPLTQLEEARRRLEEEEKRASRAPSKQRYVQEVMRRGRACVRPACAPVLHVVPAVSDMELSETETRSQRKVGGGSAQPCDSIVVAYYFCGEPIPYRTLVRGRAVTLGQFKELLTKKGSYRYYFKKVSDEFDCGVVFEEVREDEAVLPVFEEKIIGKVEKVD
UniProt O75494: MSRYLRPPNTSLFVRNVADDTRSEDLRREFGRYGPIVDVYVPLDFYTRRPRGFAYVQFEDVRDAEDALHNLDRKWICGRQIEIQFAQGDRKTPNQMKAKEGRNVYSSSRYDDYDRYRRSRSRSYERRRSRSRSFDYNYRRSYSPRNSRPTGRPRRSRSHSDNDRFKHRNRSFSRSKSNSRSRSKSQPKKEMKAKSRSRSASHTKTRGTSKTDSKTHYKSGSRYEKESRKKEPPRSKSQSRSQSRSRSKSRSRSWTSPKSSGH
UniProt Q5BJF2: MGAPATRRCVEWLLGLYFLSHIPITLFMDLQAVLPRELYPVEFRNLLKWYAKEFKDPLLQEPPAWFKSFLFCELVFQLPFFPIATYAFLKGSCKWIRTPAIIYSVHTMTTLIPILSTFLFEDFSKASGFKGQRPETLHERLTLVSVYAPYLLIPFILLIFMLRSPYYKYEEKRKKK

B1: DVL1, endogenous in A549 cells (protein, UniProt O14640 1-695)
chain: MAETKIIYHMDEEETPYLVKLPVAPERVTLADFKNVLSNRPVHAYKFFFKSMDQDFGVVKEEIFDDNAKLPCFNGRVVSWLVLAEGAHSDAGSQGTDSHTDLPPPLERTGGIGDSRPPSFHPNVASSRDGMDNETGTESMVSHRRERARRRNREEAARTNGHPRGDRRRDVGLPPDSASTALSSELESSSFVDSDEDGSTSRLSSSTEQSTSSRLIRKHKRRRRKQRLRQADRASSFSSITDSTMSLNIVTVTLNMERHHFLGISIVGQSNDRGDGGIYIGSIMKGGAVAADGRIEPGDMLLQVNDVNFENMSNDDAVRVLREIVSQTGPISLTVAKCWDPTPRSYFTVPRADPVRPIDPAAWLSHTAALTGALPRYGTSPCSSAVTRTSSSSLTSSVPGAPQLEEAPLTVKSDMSAVVRVMQLPDSGLEIRDRMWLKITIANAVIGADVVDWLYTHVEGFKERREARKYASSLLKHGFLRHTVNKITFSEQCYYVFGDLCSNLATLNLNSGSSGTSDQDTLAPLPHPAAPWPLGQGYPYQYPGPPPCFPPAYQDPGFSYGSGSTGSQQSEGSKSSGSTRSSRRAPGREKERRAAGAGGSGSESDHTAPSGVGSSWRERPAGQLSRGSSPRSQASATAPGLPPPHPTTKAYTVVGGPPGGPPVRELAAVPPELTGSRQSFQKAMGNPCEFFVDIM

Target: CK1ε tagged with both Myc and BirA* (BioID bait) (UniProt P49674)
Assay: proximity labelling; BioID in stable A549 cells expressing Myc- and BirA*-tagged CK1ε (Tet-on); biotinylated proteins purified with streptavidin and identified by mass spectrometry

binding, binds:
Axin1, endogenous in A549 cells (from UniProt O15169 1-862)
serine/arginine-rich splicing factor 10 (SRSF10), endogenous in A549 cells (from UniProt O75494 1-262)
TMEM97, endogenous in A549 cells (from UniProt Q5BJF2 1-176)
B1
